Taken from: PubChem BioAssay AID1259308 (NCATS, 2017)
Assay: 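Genes whose loss raises luciferase production in HEK293 cells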 (primary screen). Cells: human HEK293 embryonic kidney cells stably expressing firefly luciferase (HEK-CMV-Luc2-Hygro). Reagent: single siRNA against human genes, 0.8 pmol siRNA per well. Timing: 72 h. Measurement: 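Reporter luminescence and viable-cell signal on separate replicate plates, given as percent of non-targeting control and median/MAD z-scores, plus per-cell luciferase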. Reading the numbers: total luciferase, z-score and total luciferase, % of control: higher = more reporter protein produced; luciferase per cell, z-score: higher = more reporter output per viable cell; viable cells, % of control: higher = more viable cells. Active means: 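An siRNA counts as active if its total luciferase robust z-score exceeds 3; genes with two or more such siRNAs out of three were retested with fresh siRNAs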. Meaning of the calls: active = raised luciferase; inactive = no rise.
Shown is an unselected part of about 59,000 reagents tested. Of all reagents, about 1,510 (2.6%) got an active call. 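Calls use total luciferase alone and ignore viability, so some active siRNAs may act by altering cell number.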 Entries without a mark were called inactive. Reagents against one gene are numbered here.

gene knocked down,reagent,"total luciferase, z-score","total luciferase, % of control","luciferase per cell, z-score","viable cells, % of control"
CA3 (GeneID 761),1,-0.189,78.1,-0.331,95.3
CA3 (GeneID 761),2,-0.761,66.8,-0.947,95.7
CA3 (GeneID 761),3,-0.613,69.7,-0.357,85.6
PRDX3 (GeneID 10935),1,-2.55,31.1,-1.36,49.8
PRDX3 (GeneID 10935),2,3.05 (active),142,3.03,71.6
PRDX3 (GeneID 10935),3,-0.417,73.6,-0.684,98.5
ABCC5 (GeneID 10057),1,-0.443,73.1,-0.135,84.6
ABCC5 (GeneID 10057),2,-0.0295,81.3,-0.544,105
ABCC5 (GeneID 10057),3,-0.335,75.2,-0.0816,85.9

Limited to “total luciferase, % of control” (4 entries from above):
CA3 (GeneID 761) #3 = 69.7
PRDX3 (GeneID 10935) #1 = 31.1
PRDX3 (GeneID 10935) #2 = 142 (active)
PRDX3 (GeneID 10935) #3 = 73.6

The listing continues:
gene knocked down,reagent,"total luciferase, z-score","total luciferase, % of control","luciferase per cell, z-score","viable cells, % of control"
ASTN2 (GeneID 23245),1,-0.563,70.7,0.269,73.6
ASTN2 (GeneID 23245),2,-0.0247,81.4,-0.0468,92.1
ASTN2 (GeneID 23245),3,-0.548,71,-0.878,99.9
SRSF7 (GeneID 6432),1,1.35,109,0.671,102
SRSF7 (GeneID 6432),2,1.65,115,1.04,97.3
SRSF7 (GeneID 6432),3,2.2,126,0.469,124
SOX9 (GeneID 6662),1,-0.946,63.1,-1.13,95
SOX9 (GeneID 6662),2,-0.49,72.1,-0.946,103
SOX9 (GeneID 6662),3,0.755,96.9,1.11,80.8
METTL2B (GeneID 55798),1,1.67,115,1.3,91.4
METTL2B (GeneID 55798),2,1.57,113,1.26,90.9
METTL2B (GeneID 55798),3,1.39,110,1.95,73.4
MATN3 (GeneID 4148),1,0.53,92.4,1.23,74.7
MATN3 (GeneID 4148),2,-0.57,70.5,-0.423,88.1
MATN3 (GeneID 4148),3,0.122,84.3,0.0109,93.9
